Assay [1] addresses T1, ICAM-R cytoplasmic tail (C-tail) peptide (human).
T1 sequence (peptide): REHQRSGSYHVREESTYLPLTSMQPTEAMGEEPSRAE
As to the kind of experiment: peptide beads with Jijoye cell lysate, western blot.

Protein sequences, listed by entry. Tags and fused reporters are not part of them.
UniProt P68363: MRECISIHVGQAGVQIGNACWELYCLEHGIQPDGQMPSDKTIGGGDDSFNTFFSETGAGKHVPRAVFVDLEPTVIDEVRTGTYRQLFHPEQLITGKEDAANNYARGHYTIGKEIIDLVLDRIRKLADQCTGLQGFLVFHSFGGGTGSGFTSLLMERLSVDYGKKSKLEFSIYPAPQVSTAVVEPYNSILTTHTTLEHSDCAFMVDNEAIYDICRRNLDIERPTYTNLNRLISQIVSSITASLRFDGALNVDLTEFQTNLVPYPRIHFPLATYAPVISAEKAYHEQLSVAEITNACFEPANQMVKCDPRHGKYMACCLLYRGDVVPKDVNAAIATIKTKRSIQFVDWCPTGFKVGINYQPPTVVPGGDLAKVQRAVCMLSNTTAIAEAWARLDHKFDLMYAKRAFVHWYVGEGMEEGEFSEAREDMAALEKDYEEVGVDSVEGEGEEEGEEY

The target is the same in assay [2]. As to the kind of experiment: C-tail affinity chromatography of tonsil lysate, peptide elution, western blot.

Results are given in words; binding and its absence hold for the method and conditions named. Some binding calls cover weakened binding; strength is not graded here.

With “alpha-tubulin in cell lysates (from UniProt P68363 1-451)”, the binding result in assay [1] and in assay [2] was “binds” throughout.

Values taken from US20030199423A1.
